{"source": "patent US12618846B2", "about": "“Method and device for imaging fluorescent proteins in near- and short-wave infrared” (HELMHOLTZ ZENTRUM MÜNCHEN—DEUTSCHES FORSCHUNGSZENTRUM FÜR …, priority 2019, dated 2026)", "key": {"[1]": {"assay": "Fluorescent protein signal in context of autofluorescence of the lower back of mice", "parameters": "species or system mouse", "settings": "above 1000 nm; for autofluorescence equiv. conc.: inverse of signal over background, minimal protein concentration matching autofluorescence of mouse lower back"}, "[2]": {"assay": "SWIR imaging (above 1000 nm) of vials of purified fluorescent proteins, signal per concentration", "settings": "for signal per conc.: emission above 1000 nm, counts normalised to excitation power [mW/cm^2], exposure time [ms], concentration [mu M], slope of linear fit; for emission beyond 1000 nm: excitation 470 nm, 565 nm, 660 nm respectively, InGaAs camera, 1000 nm long-pass"}}, "note": "Some compounds share one wording; it may come from a single statement."}
{"substance": "IRFP720: near-infrared fluorescent protein derived from Rhodopseudomonas palustris, e.g. SEQ ID NO: 59 (also SEQ ID NO: 3, 25)", "values": [{"measurement": "signal over concentration compared to tdTomato, after considering autofluorescence", "setting": "[1]", "value": "factor three more"}, {"measurement": "signal over concentration relative to sfGFP, after considering autofluorescence (factor)", "setting": "[1]", "value": 670}, {"measurement": "autofluorescence equiv. conc.", "setting": "[1]", "value": "0.0747 ± 0.02"}, {"measurement": "signal per concentration compared to sfGFP", "setting": "[2]; above 1000 nm", "value": "three-orders of magnitude higher"}, {"measurement": "signal per concentration compared to tdTomato", "setting": "[2]; above 1000 nm", "value": "factor nine higher"}, {"measurement": "signal per conc.", "setting": "[2]", "value": "15.5 ± 0.1"}, {"measurement": "emission beyond 1000 nm", "setting": "[2]", "value": "exhibit emission beyond 1000 nm"}]}
{"substance": "sfGFP: fluorescent protein sfGFP having e.g. SEQ ID NO: 61", "values": [{"measurement": "autofluorescence equiv. conc.", "setting": "[1]", "value": "49.4 ± 10.0"}, {"measurement": "signal per conc.", "setting": "[2]", "value": "0.0147 ± 0.0007"}, {"measurement": "emission beyond 1000 nm", "setting": "[2]", "value": "exhibit emission beyond 1000 nm"}]}
